In patent US20230039851A1 (ARO BIOTHERAPEUTICS, published 2023):
Results are given in words; binding and its absence hold for the method and conditions named. Some binding calls cover weakened binding; strength is not graded here.

Sequences of proteins named here, by UniProt entry; tags and fusion partners are left off. A change or cut given only in a name is not applied to a line headed by its entry. Residues count along the entry.
UniProt P02768, residues 213-409: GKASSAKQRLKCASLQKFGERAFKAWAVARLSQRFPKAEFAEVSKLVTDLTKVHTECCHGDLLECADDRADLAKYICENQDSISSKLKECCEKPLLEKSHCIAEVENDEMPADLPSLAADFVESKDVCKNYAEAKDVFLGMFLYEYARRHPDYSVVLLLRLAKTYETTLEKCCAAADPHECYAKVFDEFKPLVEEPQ
UniProt A2V9Z4: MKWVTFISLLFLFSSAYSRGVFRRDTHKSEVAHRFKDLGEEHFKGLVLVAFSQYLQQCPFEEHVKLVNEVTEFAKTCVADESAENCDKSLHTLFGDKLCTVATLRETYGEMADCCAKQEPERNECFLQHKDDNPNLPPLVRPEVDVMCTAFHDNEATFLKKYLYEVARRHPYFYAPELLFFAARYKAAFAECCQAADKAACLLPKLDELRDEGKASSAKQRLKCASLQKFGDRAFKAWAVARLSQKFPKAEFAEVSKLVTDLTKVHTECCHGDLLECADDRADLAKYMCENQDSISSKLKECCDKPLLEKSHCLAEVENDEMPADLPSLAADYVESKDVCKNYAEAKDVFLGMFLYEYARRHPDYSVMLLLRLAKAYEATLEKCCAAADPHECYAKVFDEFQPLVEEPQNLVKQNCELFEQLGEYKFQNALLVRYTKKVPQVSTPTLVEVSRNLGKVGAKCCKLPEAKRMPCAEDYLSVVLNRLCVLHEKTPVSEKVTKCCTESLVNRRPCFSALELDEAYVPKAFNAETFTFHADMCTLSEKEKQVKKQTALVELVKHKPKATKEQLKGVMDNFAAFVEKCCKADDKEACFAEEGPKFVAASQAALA

Assays:
Human Serum Albumin = molecular target: T1, Human Serum Albumin (human, UniProt P02768 25-609); experiment: pull-down of endogenous albumin from human serum
T1 construct: ELISA: albumin coated on plates; pull-down: endogenous albumin in normal human serum; also called HSA; Human SA

Cynomolgus Serum Albumin = molecular target: T2, Cynomolgus Serum Albumin (cynomolgus monkey, UniProt A2V9Z4 25-608); experiment: pull-down of endogenous albumin from cynomolgus serum
T2 construct: ELISA: albumin coated on plates; pull-down: endogenous albumin in cynomolgus serum; also called cSA; Cyno SA

[1] = molecular target: human albumin domain II (human) (UniProt P02768); experiment: ELISA on coated albumin

Binder | binding (Human Serum Albumin) | binding (Cynomolgus Serum Albumin) | binding [1]
A10V, R49A (designed binder, Variant of B7; not shown: His tag: FN3 domains were purified as His-tagged proteins) MLPAPKNLVVSRVTEDSARLSWTAPDAAFDSFNIAYWEPGIGGEAIWLAVPGSERSYDLTGLKPGTEYKVWIHGVKGGASSPPLIARFTT | binds | binds | 
B7 (designed binder, FN3 domain (Tencon27-based library clone) expressed in E. coli; also called ALB40; not shown: His tag: FN3 domains were purified as His-tagged proteins) MLPAPKNLVASRVTEDSARLSWTAPDAAFDSFNIAYWEPGIGGEAIWLRVPGSERSYDLTGLKPGTEYKVWIHGVKGGASSPPLIARFTT |  |  | binds
